# Laboratory results reported in PMC6610665, “On the potential of in vitro organ-chip models to define temporal pharmacokinetic-pharmacodynamic relationships” (Scientific Reports, 2019).
# Where two headings read alike, the source gives them in different places.
# Columns and labels:
# [1] = heart:liver model, after 5 µM terfenadine, 24 hours, mean ± SD
# [2] = heart only model, after 5 µM terfenadine, mean ± SD
compound,measurement,setting,value
CC(C)(C(=O)O)c1ccc(C(O)CCCN2CCC(C(O)(c3ccccc3)c3ccccc3)CC2)cc1 (centres unmarked) [fexofenadine],fexofenadine concentration in media,[1],3.8 µM
same,fexofenadine concentration in media,[2],0.124 µM
